Patent US20100041689A1, “Combined Effects of Topiramate and Ondansetron on Alcohol Consumption” (UNIVERSITY OF VIRGINIA PATENT FOUNDATION, priority 2006, published 2010)

Tested on: P rats
Experiment: Water, total fluid and food consumption (selectivity for ethanol), P rats
Format: in vivo, rat
Settings: P>0.05; for food consumption / total fluid intake: both treatment phases, data not shown

Row | SMILES | water consumption (acute or chronic phase (ondansetron alone: phase not stated, data not shown), rat line not stated) | food consumption (rat line not stated) | total fluid intake (rat line not stated) | water consumption (P rats, acute testing period, topiramate 5 and 10 mg/kg, FIG. 6A) | water consumption (chronic treatment phase, compared with baseline levels, rat line not stated)
1 | Cc1nccn1CC1CCc2c(c3ccccc3n2C)C1=O (stereo not shown) [Ondansetron, 9-methyl-3-[(2-methyl-1H-imidazol-1-yl)methyl]-1,2,3,9-tetrahydrocarbazol-4-one] | No effects were observed | No effects were observed | No effects were observed |  | 
2 | CC1(C)O[C@@H]2[C@@H](CO[C@@]3(COS(N)(=O)=O)OC(C)(C)O[C@@H]23)O1 [Topiramate, 2,3:4,5-Bis-O-(1-methylethylidene)-beta-D-fructopyranose sulfamate] |  | no significant effects | no significant effects | did not affect water consumption | Nor did it affect water consumption
